Measured data: PubChem BioAssay AID1259308 (NCATS, 2017)
Purpose: 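Genes whose loss raises luciferase production in HEK293 cells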 (primary screen). Cell system: human HEK293 embryonic kidney cells stably expressing firefly luciferase (HEK-CMV-Luc2-Hygro). Reagents: single siRNA against human genes, 0.8 pmol siRNA per well. Timing: 72 h. Measurement: 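Luciferase light (ONE-Glo) measured on one replicate plate set and viability (CellTiter-Glo) on the other, scaled to a negative control siRNA, with robust z-scores and luciferase per cell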. Reading the numbers: total luciferase, z-score and total luciferase, % of control: higher = more reporter protein produced; luciferase per cell, z-score: higher = more reporter output per viable cell; viable cells, % of control: higher = more viable cells. Call rule: 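An siRNA counts as active if its total luciferase robust z-score exceeds 3; genes with two or more such siRNAs out of three were retested with fresh siRNAs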. Calls: active = raised luciferase; inactive = no rise.
Shown is a random part of about 59,000 deposited reagents. About 1,510 of them (2.6%) count as active. 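Calls use total luciferase alone and ignore viability, so some active siRNAs may act by altering cell number.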 Unmarked entries are inactive. The numbers tell different reagents against one gene apart. Reagent sequences are not shown.

| Gene | siRNA no. | total luciferase, z-score | total luciferase, % of control | luciferase per cell, z-score | viable cells, % of control |
| --- | --- | --- | --- | --- | --- |
| WNT3A | 1 | -0.0806 | 80.3 | 0.135 | 86.6 |
| WNT3A | 2 | -1.1 | 60 | -1.33 | 95.1 |
| WNT3A | 3 | 0.314 | 88.1 | 0.993 | 75.8 |
| STMN3 | 1 | 0.148 | 84.8 | -0.105 | 97.5 |
| STMN3 | 2 | 3.12 (active) | 144 | 2.19 | 90.3 |
| STMN3 | 3 | 2.36 | 129 | 1.69 | 92.3 |
| PIGC | 1 | -1.15 | 58.9 | -0.755 | 80.3 |
| PIGC | 2 | 0.203 | 85.9 | -0.395 | 107 |
| PIGC | 3 | -0.184 | 78.2 | -0.338 | 95.5 |
| INPP4A | 1 | -0.429 | 73.3 | -0.402 | 91.1 |
| INPP4A | 2 | -1.08 | 60.3 | -1.59 | 102 |
| INPP4A | 3 | 0.19 | 85.7 | -0.317 | 104 |
| OR2Y1 | 1 | 1.49 | 112 | 1.13 | 92.6 |
| OR2Y1 | 2 | 2.45 | 131 | 1.83 | 90 |
| OR2Y1 | 3 | 0.636 | 94.5 | 0.525 | 92 |
| PIGF | 1 | -0.496 | 72 | -0.351 | 88.3 |
| PIGF | 2 | 0.703 | 95.9 | -0.128 | 111 |
| PIGF | 3 | 2.22 | 126 | 2.3 | 76.8 |
| CAMK4 | 1 | 0.711 | 96 | 0.783 | 87.3 |
| CAMK4 | 2 | -0.814 | 65.7 | -1.24 | 102 |
| CAMK4 | 3 | -0.792 | 66.1 | -0.415 | 82.4 |
| NOL7 | 1 | -1.31 | 55.8 | -0.835 | 77.7 |
| NOL7 | 2 | 0.185 | 85.6 | 0.14 | 92.2 |
| NOL7 | 3 | -1.62 | 49.7 | -0.423 | 62 |
| SEPHS2 | 1 | -1.75 | 47.1 | -1.45 | 77.1 |
| SEPHS2 | 2 | 0.407 | 90 | 0.224 | 94.8 |
| SEPHS2 | 3 | 0.747 | 96.7 | 0.374 | 98 |
| MYOF | 1 | 0.00422 | 82 | -0.16 | 95.5 |
| MYOF | 2 | -1.38 | 54.5 | -1.74 | 96.3 |
| MYOF | 3 | 0.317 | 88.2 | 0.00243 | 98.5 |
| TMEM178A | 1 | 0.0158 | 82.2 | 0.883 | 72.8 |
| TMEM178A | 2 | 0.69 | 95.6 | 0.534 | 92.8 |
| TMEM178A | 3 | -0.544 | 71.1 | -0.0932 | 81.4 |
| PRIMA1 | 1 | 0.115 | 84.2 | 1.56 | 62.4 |
| PRIMA1 | 2 | 0.439 | 90.6 | 0.478 | 89.3 |
| PRIMA1 | 3 | 0.58 | 93.4 | 1.86 | 64 |
| OR2AT4 | 1 | -1.77 | 46.7 | -1.38 | 75.2 |
| OR2AT4 | 2 | -0.558 | 70.8 | 0.199 | 75.1 |
| OR2AT4 | 3 | 0.749 | 96.8 | 0.502 | 94.8 |
| TUBB4B | 1 | 0.281 | 87.5 | -0.139 | 101 |
| TUBB4B | 2 | -1.08 | 60.5 | -1.49 | 99.9 |
| TUBB4B | 3 | 0.636 | 94.5 | 0.192 | 100 |
| FXR1 | 1 | -0.369 | 74.6 | -0.826 | 104 |
| FXR1 | 2 | -0.718 | 67.6 | -0.944 | 96.9 |
| FXR1 | 3 | -1.01 | 61.8 | -1.29 | 97 |
| CLPSL1 | 1 | 2.32 | 128 | 0.815 | 115 |
| CLPSL1 | 2 | -1.41 | 53.9 | -0.4 | 66.9 |
| CLPSL1 | 3 | -0.759 | 66.8 | -0.624 | 88 |
| PNRC1 | 1 | 3.69 (active) | 155 | 1.98 | 103 |
| PNRC1 | 2 | -0.853 | 64.9 | -0.743 | 88.2 |
| PNRC1 | 3 | -0.538 | 71.2 | 0.121 | 77.1 |
| STRA6 | 1 | 1.51 | 112 | 2.87 | 58.7 |
| STRA6 | 2 | 0.213 | 86.1 | -0.0183 | 96.7 |
| STRA6 | 3 | -0.263 | 76.7 | 0.0131 | 85.4 |
| MRPS6 | 1 | -0.0755 | 80.4 | -0.389 | 99.5 |
| MRPS6 | 2 | 0.298 | 87.8 | 0.121 | 95 |
| MRPS6 | 3 | -0.946 | 63.1 | -1.22 | 97.1 |
| PRR36 | 1 | 0.346 | 88.8 | 0.0606 | 97.6 |
| PRR36 | 2 | 2.64 | 134 | 1.27 | 107 |
| PRR36 | 3 | 0.383 | 89.5 | -0.116 | 103 |
| OR11H12 | 1 | 0.153 | 84.9 | -0.425 | 106 |
| OR11H12 | 2 | 0.346 | 88.8 | -0.254 | 106 |
| OR11H12 | 3 | 0.374 | 89.3 | -0.469 | 113 |
| AADAT | 1 | 0.991 | 102 | 1.56 | 75.2 |
| AADAT | 2 | 2.53 | 132 | 1.48 | 100 |
| AADAT | 3 | 2.02 | 122 | 1.65 | 88.3 |
| CCDC178 | 1 | -0.0149 | 81.6 | 0.551 | 78.9 |
| CCDC178 | 2 | -0.523 | 71.5 | -0.633 | 94.4 |
| CCDC178 | 3 | -0.576 | 70.4 | 0.149 | 75.7 |
| CASC16 | 1 | 0.753 | 96.9 | 0.358 | 98.5 |
| CASC16 | 2 | 0.91 | 100 | 1.5 | 75.3 |
| CASC16 | 3 | -0.702 | 67.9 | -0.228 | 80.6 |
| OCLM (retired record) | 1 | 0.429 | 90.4 | -0.209 | 107 |
| OCLM (retired record) | 2 | 0.709 | 96 | 0.503 | 94 |
| OCLM (retired record) | 3 | -1.76 | 47 | -2.04 | 89.8 |

Targets listed so far whose gene name begins with I or i (3):
| Gene | siRNA no. | total luciferase, z-score | total luciferase, % of control | luciferase per cell, z-score | viable cells, % of control |
| --- | --- | --- | --- | --- | --- |
| INPP4A | 1 | -0.429 | 73.3 | -0.402 | 91.1 |
| INPP4A | 2 | -1.08 | 60.3 | -1.59 | 102 |
| INPP4A | 3 | 0.19 | 85.7 | -0.317 | 104 |
